PubChem BioAssay AID1224826, NIAID | 2016

- Test: 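Knock-downs that raise or lower Tnf reporter signal after endotoxin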 (primary screen)
- System: RAW264.7 G9 macrophages from mouse bearing reporters for p65 (GFP) and the Tnf promoter (mCherry)
- Reagents: siRNA pool against mouse genes, 100 nM
- Timing: 16 h of LPS stimulation, after 2 days of siRNA transfection
- Challenge: bacterial lipopolysaccharide (Salmonella minnesota R595), 10 ng/ml
- Read-out: 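Imaged Tnf reporter mCherry in nuclei, minus background, normalised per plate to the median and expressed as robust z-scores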
- Direction: Tnf reporter robust z-score: higher = stronger Tnf promoter reporter signal after LPS
- Call rule: 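a well counts as active at a score of -1.3 or below (Tlr4 knock-down control median) or above 3 (raised signal); controls and wells holding fewer than 50 cells are excluded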
- Calls: active = Tnf reporter clearly lowered or raised; inactive = no clear change in Tnf reporter
The whole screen tested about 17,000 reagents; below is a part drawn at random. About 1,110 of them (6.6%) were called active. 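Active means lowered or raised reporter signal; replicate intensities are raw and not normalised per plate.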 A number with no mark means an inactive call. Further read-outs or replicates are left out here.

For Rest (RE1-silencing transcription factor), what does the deposit list?
Tnf reporter robust z-score: 0.48; fewer than 50 cells in well: enough cells in well

What did the screen give for Klk1b26 (kallikrein 1-related petidase b26)?
Tnf reporter robust z-score: -0.45; fewer than 50 cells in well: enough cells in well

What did the screen give for Calhm5 (calcium homeostasis modulator family member 5)?
Tnf reporter robust z-score: -0.45; fewer than 50 cells in well: enough cells in well

With Cps1 (carbamoyl-phosphate synthetase 1), how do the results read?
Tnf reporter robust z-score: 0; fewer than 50 cells in well: enough cells in well

How did the screen score 3830403N18Rik (RIKEN cDNA 3830403N18 gene)?
Tnf reporter robust z-score: -0.4; fewer than 50 cells in well: enough cells in well

For C030006K11Rik (RIKEN cDNA C030006K11 gene), what does the deposit list?
Tnf reporter robust z-score: 2.02; fewer than 50 cells in well: enough cells in well

For Irebf1 (retired record), what was measured?
Tnf reporter robust z-score: 0.63; fewer than 50 cells in well: enough cells in well

With Prol1 (proline rich, lacrimal 1), what was measured?
Tnf reporter robust z-score: 0.07; fewer than 50 cells in well: enough cells in well

What is on record for Ccdc34 (coiled-coil domain containing 34)?
Tnf reporter robust z-score: 0.56; fewer than 50 cells in well: enough cells in well

What did the screen give for Paox (polyamine oxidase (exo-N4-amino))?
Tnf reporter robust z-score: -1.91 (active); fewer than 50 cells in well: enough cells in well

With Creld2 (cysteine-rich with EGF-like domains 2), what was measured?
Tnf reporter robust z-score: -0.6; fewer than 50 cells in well: enough cells in well

For Coq9 (coenzyme Q9), what does the deposit list?
Tnf reporter robust z-score: 2.28; fewer than 50 cells in well: enough cells in well

What is on record for Cenpt (centromere protein T)?
Tnf reporter robust z-score: -1.6 (active); fewer than 50 cells in well: enough cells in well

Ordered by “Tnf reporter robust z-score” (descending): 3 of the entries above.
C030006K11Rik (RIKEN cDNA C030006K11 gene): Tnf reporter robust z-score = 2.02; fewer than 50 cells in well = enough cells in well
Irebf1 (retired record): Tnf reporter robust z-score = 0.63; fewer than 50 cells in well = enough cells in well
Prol1 (proline rich, lacrimal 1): Tnf reporter robust z-score = 0.07; fewer than 50 cells in well = enough cells in well

Further entries follow.
For Echdc3 (enoyl Coenzyme A hydratase domain containing 3), how do the results read?
Tnf reporter robust z-score: 0.08; fewer than 50 cells in well: enough cells in well

What did the screen give for Rab7 (RAB7, member RAS oncogene family)?
Tnf reporter robust z-score: 2.62; fewer than 50 cells in well: enough cells in well

With Rhobtb3 (Rho-related BTB domain containing 3), how do the results read?
Tnf reporter robust z-score: -0.12; fewer than 50 cells in well: enough cells in well

For Cd320 (CD320 antigen), what was measured?
Tnf reporter robust z-score: -0.46; fewer than 50 cells in well: enough cells in well

How did the screen score Samd11 (sterile alpha motif domain containing 11)?
Tnf reporter robust z-score: -0.66; fewer than 50 cells in well: enough cells in well

What is on record for Krt33a (keratin 33A)?
Tnf reporter robust z-score: 0.1; fewer than 50 cells in well: enough cells in well

With Tle1 (transducin-like enhancer of split 1), what was measured?
Tnf reporter robust z-score: -0.89; fewer than 50 cells in well: enough cells in well

What did the screen give for Commd10 (COMM domain containing 10)?
Tnf reporter robust z-score: 0.42; fewer than 50 cells in well: enough cells in well

With Pdcd6ip (programmed cell death 6 interacting protein), how do the results read?
Tnf reporter robust z-score: 0.13; fewer than 50 cells in well: enough cells in well

For Lratd2 (LRAT domain containing 2), how do the results read?
Tnf reporter robust z-score: 1.1; fewer than 50 cells in well: enough cells in well

What did the screen give for Vmn1r44 (vomeronasal 1 receptor 44)?
Tnf reporter robust z-score: -0.47; fewer than 50 cells in well: enough cells in well

With Aco1 (aconitase 1), what does the deposit list?
Tnf reporter robust z-score: -0.17; fewer than 50 cells in well: enough cells in well

With Nemp1 (nuclear envelope integral membrane protein 1), what was measured?
Tnf reporter robust z-score: -0.84; fewer than 50 cells in well: enough cells in well

For Clca3a1 (chloride channel accessory 3A1), how do the results read?
Tnf reporter robust z-score: 1.22; fewer than 50 cells in well: enough cells in well
